Measurements reported in PubChem BioAssay AID1508588 (Peter MacCallum Cancer Centre, 2020)

Test: 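Knock-downs boosting vemurafenib effects on melanoma cell growth or lactate release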 (primary screen)
Cells: human WM266.4 melanoma cells (BRAF V600 mutant)
Knock-down reagent: siRNA pool against human genes, 40 nM
Timing: 96 h from transfection to read-out
Challenge: vemurafenib 300 nM (about IC25), added 48 h after transfection, for 48 h; comparison arm got DMSO vehicle only
Measurement: 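Cell gain (DAPI nuclei at end minus before drug, mean of two replicates) and medium lactate by absorbance per cell, both as ratio to non-targeting siRNA, also grouped into fold-change classes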
Scale: cell gain with vemurafenib: higher = more cell gain than with non-targeting siRNA; lactate per cell with vemurafenib: higher = more lactate made per cell
Call rule: 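Enhancement is called by pairing each knock-down's vehicle-arm and drug-arm fold-change classes for viability or glycolysis; which class combinations qualify is not given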
Calls: active = enhances vemurafenib effect; inactive = no enhancement seen
The whole screen tested about 18,000 reagents; below is an unselected part. Over the whole deposit, 790 (4.4%) were called active. 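Calls rest on a combination of fold-change classes in drug and vehicle arms, not all shown here.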 Reagent sequences are not shown.

gene | cell gain with vemurafenib | lactate per cell with vemurafenib | Call
PLTP (phospholipid transfer protein) | 1.21 | 0.57 | inactive
PAK2 (p21 (RAC1) activated kinase 2) | 0.68 | 0.52 | inactive
BSDC1 (BSD domain containing 1) | 0.62 | 0.55 | inactive
FOXO4 (forkhead box O4) | 0.68 | 0.4 | active
NEFH (neurofilament heavy chain) | 0.37 | 0.82 | inactive
METTL22 (methyltransferase 22, Kin17 lysine) | 0.08 | 1.23 | inactive
CYBRD1 (cytochrome b reductase 1) | 0.38 | 0.98 | inactive
AK3 (adenylate kinase 3) | 0.65 | 1.49 | inactive
GMFB (glia maturation factor beta) | 0.81 | 1.5 | inactive
GALNT2 (polypeptide N-acetylgalactosaminyltransferase 2) | 0.35 | 0.36 | active
KIR3DX1 | 0.6 | 0.86 | inactive
OR2L13 (olfactory receptor family 2 subfamily L member 13) | 0.74 | 0.8 | inactive
TRPA1 | 1.1 | 0.6 | inactive
KRCC1 (lysine rich coiled-coil 1) | 0.84 | 0.58 | inactive
ACAD10 (acyl-CoA dehydrogenase family member 10) | 0.51 | 0.26 | inactive
CPT1B (carnitine palmitoyltransferase 1B) | 0.79 | 0.71 | inactive
MSC (musculin) | 0.46 | 0.15 | inactive
ODF4 (outer dense fiber of sperm tails 4) | 0.44 | 0.8 | inactive
TMEM51 (transmembrane protein 51) | 0.49 | 1.18 | inactive
MAPK1 (mitogen-activated protein kinase 1) | -0.22 | -0.32 | inactive
ANKRD30A (ankyrin repeat domain 30A) | -0.08 | 0.84 | inactive
HPCAL4 (hippocalcin like 4) | 0.2 | 1.58 | inactive
RRM2B | 0.9 | 0.62 | inactive
TXNDC9 (thioredoxin domain containing 9) | 0.16 | -0.18 | inactive
RNF103 (ring finger protein 103) | 1.04 | 0.74 | inactive
ZFP69B (ZFP69 zinc finger protein B) | 0.79 | 1.18 | inactive
MVD (mevalonate diphosphate decarboxylase) | 0.06 | 1.58 | inactive
RABGAP1L (RAB GTPase activating protein 1 like) | 0.17 | 0.68 | inactive
MTF1 (metal regulatory transcription factor 1) | 0.43 | 0.56 | inactive
RRP36 (ribosomal RNA processing 36) | 0.43 | 0.28 | inactive
MAP6D1 (MAP6 domain containing 1) | -0.07 | 0.27 | inactive
ZNF345 (zinc finger protein 345) | 0.55 | 0.52 | active
THAP11 (THAP domain containing 11) | 0.39 | 1.68 | inactive
MUC16 (mucin 16, cell surface associated) | 0.16 | 1.45 | inactive
CORO1C (coronin 1C) | 0.41 | 0.64 | inactive
RPRML (reprimo like) | 0.24 | 2.36 | inactive
FUT2 (fucosyltransferase 2 (H blood group)) | 0.93 | 1.18 | inactive
STARD7-AS1 (STARD7 antisense RNA 1) | 0.59 | 0.67 | inactive
NME7 (NME/NM23 family member 7) | 0.91 | 0.56 | inactive
ACBD6 (acyl-CoA binding domain containing 6) | 0.69 | 1.06 | inactive
C10orf90 (chromosome 10 open reading frame 90) | 0.63 | 0.68 | inactive
MMP11 (matrix metallopeptidase 11) | 0.26 | 0.79 | inactive
LRRC8D (leucine rich repeat containing 8 VRAC subunit D) | 0.8 | 0.4 | active
TTLL5 (tubulin tyrosine ligase like 5) | 0.38 | 0.3 | inactive
LYSMD1 (LysM domain containing 1) | 0.7 | 0.73 | inactive
ENDOV (endonuclease V) | 1.4 | 0.49 | inactive
MT1A (metallothionein 1A) | 0.79 | 0.72 | inactive
STX5 (syntaxin 5) | 0.88 | 0.84 | inactive
MNMIP1 (manchette microtubule inner protein 1) | 1.22 | 0.42 | inactive
QTRT2 (queuine tRNA-ribosyltransferase accessory subunit 2) | 0.4 | 0.89 | inactive
LZTFL1 (leucine zipper transcription factor like 1) | 0.7 | 0.72 | inactive
CLEC4D (C-type lectin domain family 4 member D) | 0.16 | 1.38 | active
CA2 (carbonic anhydrase 2) | 0.54 | 1.96 | inactive
S100A12 (S100 calcium binding protein A12) | 0.17 | 0.69 | inactive
HTRA3 (HtrA serine peptidase 3) | 0.16 | 1.39 | inactive
OR3A4P (olfactory receptor family 3 subfamily A member 4 pseudogene) | 0.62 | 0.3 | inactive
HOXA11 (homeobox A11) | 0.99 | 0.5 | inactive

Active calls, among the entries above:
gene | cell gain with vemurafenib | lactate per cell with vemurafenib | Call
FOXO4 (forkhead box O4) | 0.68 | 0.4 | active
GALNT2 (polypeptide N-acetylgalactosaminyltransferase 2) | 0.35 | 0.36 | active
ZNF345 (zinc finger protein 345) | 0.55 | 0.52 | active
LRRC8D (leucine rich repeat containing 8 VRAC subunit D) | 0.8 | 0.4 | active
CLEC4D (C-type lectin domain family 4 member D) | 0.16 | 1.38 | active
